# In PubChem BioAssay AID1487 (National Center for Advancing Translational Sciences (NCATS), 2009):
# Some of the results follow. Shown are side measurements of this screen, not its main read-out; they come without a call. Compounds called inactive in the main read-out are mostly missing here. Words in brackets tell the shape of the fitted curve; partial curves, single points and poor fits give uncertain potencies.
# Assay: qHTS Assay for Modulators of Lamin A Splicing
# Settings: HeLa LMNA splicing GFP/RFP minigene ratio, 48 h
# How it was run: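 Read-out is the ratio of GFP to DsRed2 object intensity, acquired by 488 nm laser-scanning cytometry on HeLa lamin A-EGFP minigene reporter cells. Compound incubation 48 hrs at 37 °C in Opti-MEM with 2% FBS; DMSO 0.5% final.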
# [1] = measured here: GFP splicing reporter channel
# [2] = measured here: RFP viability control channel
SMILES,AC50 [1],AC50 [2]
N#C/C(C(N)=O)=c1/ccc2c(c1)N1C3=C(CCCC3)CC3CCCCC31N=2 (stereo not given),"35.5 µM [falling, single point]","35.5 µM [falling, single point]"
COc1ccc(/C=N/NC(=O)c2ccncc2)cc1CN1CCN(c2ccc(F)cc2)CC1,"3.16 µM [rising, single point]",
C[C@]1(C(=O)NCc2cc(F)cc(C(F)(F)F)c2)C=C[C@@H](Cc2ccccc2)N1C(=O)c1ccccc1,"10 µM [rising, partial curve]","11.2 µM [rising, partial curve]"
Clc1ccc(-c2noc(CN3CCN(c4ccccc4)CC3)n2)cc1,,"35.5 µM [rising, single point]"
N#CC(C#N)=C1C=CC=CN1/C(=C\c1ccccc1Cl)C(=O)c1ccccc1,"7.94 µM [rising, partial curve, poor fit]",
COc1cc(/C=N/N(C)c2ccccc2)ccc1O,"28.2 µM [falling, single point]","35.5 µM [falling, single point]"
COc1cc(CN2CCN(c3cccc(C)c3C)CC2)cc([N+](=O)[O-])c1O,,"7.08 µM [rising, full curve, poor fit]"
COc1ccccc1NCC(O)COc1ccc(C(C)(C)C)cc1 (stereo not given),"35.5 µM [falling, single point]","28.2 µM [falling, partial curve]"
CCOC(=O)C1CCCN(CC(=O)/C=C2/N(C)c3ccccc3C2(C)C)C1 (stereo not given),,"22.4 µM [rising, single point]"
Cc1cc(NCCN2CCOCC2)c2ccc3ccccc3c2n1,"11.2 µM [falling, partial curve]",
O=C(NCCc1c[nH]c2ccccc12)C(=O)NCC(c1cccnc1)N1CCN(c2ccccc2)CC1 (stereo not given),,"3.55 µM [rising, full curve]"
Cc1nn(C)c(C(=O)NNC(=S)NCC(C)C)c1Cl,"11.2 µM [rising, single point]","12.6 µM [rising, single point]"
Cc1ccc(C(=O)N2CCN=C2SCc2ccc([N+](=O)[O-])cc2)cc1C,"35.5 µM [rising, partial curve, poor fit]","35.5 µM [rising, single point]"
N#Cc1c(NC(=O)CSc2ncnc3c2cnn3-c2ccccc2Cl)sc2c1CCCC2,,"10 µM [rising, partial curve, poor fit]"
CC(C)C(=O)Nc1cccc(S(=O)(=O)c2cccc(NC(=O)C(C)C)c2)c1,,"12.6 µM [rising, partial curve]"
CCc1ccc(-c2[nH]c3c(c2-c2sc(C)c(C(=O)OC)c2O)c(=O)[nH]c(=O)n3C)cc1,"35.5 µM [falling, single point]","3.55 µM [falling, partial curve]"
CCCCN(CCCC)S(=O)(=O)c1ccc2oc(C(=O)NCc3ccc(C)cc3)c(C)c2c1,,"22.4 µM [rising, single point]"
N=c1c(C(=O)NCc2ccco2)cc2c(=O)n3ccccc3nc2n1Cc1ccc(Cl)cc1,,"35.5 µM [falling, single point]"
CCCCn1ccc(=O)c2c(C(F)(F)F)nccc21,"8.91 µM [rising, partial curve, poor fit]","17.8 µM [rising, single point]"
CCCOCCOC(=O)c1[nH]c2c(c1C)C(=O)CC(c1cc(OC)ccc1OC)C2 (stereo not given),,"4.47 µM [rising, full curve]"
O=C(Nc1nnc(-c2ccccc2)o1)c1ccc(Cl)cc1,,"5.62 µM [rising, single point]"
COc1cc(OC)cc(C(=O)N[C@H](C(=O)Nc2nc(-c3cc(OC)ccc3OC)cs2)C(C)C)c1,"22.4 µM [falling, partial curve, poor fit]","10 µM [falling, partial curve]"
COC(=O)C1=C(C)N=C2SCCC(=O)N2C1c1cc(Br)ccc1OC (stereo not given),,"12.6 µM [rising, partial curve]"
CCCn1ccc2c(OCC(=O)Nc3ccccc3OCC)cccc2c1=O,"0.562 µM [falling, full curve]",
CC1CCc2cc(F)cc3c(O)c(C(=O)NCC4CCCO4)c(=O)n1c23 (stereo not given),,"6.31 µM [rising, single point]"
CCc1ccc(/C=N/NC(=O)c2cc(-c3ccncc3)nc3ccccc23)s1,"1.78 µM [rising, full curve]","1.78 µM [rising, full curve]"
CN(C)C(=O)c1ccc(-c2ccc3ncnc(Nc4ccccc4)c3c2)cc1,"12.6 µM [falling, partial curve]","12.6 µM [falling, partial curve]"

# Structural class, the entries above containing a cyano group.
SMILES,AC50 [1],AC50 [2]
N#C/C(C(N)=O)=c1/ccc2c(c1)N1C3=C(CCCC3)CC3CCCCC31N=2 (stereo not given),"35.5 µM [falling, single point]","35.5 µM [falling, single point]"
N#CC(C#N)=C1C=CC=CN1/C(=C\c1ccccc1Cl)C(=O)c1ccccc1,"7.94 µM [rising, partial curve, poor fit]",
N#Cc1c(NC(=O)CSc2ncnc3c2cnn3-c2ccccc2Cl)sc2c1CCCC2,,"10 µM [rising, partial curve, poor fit]"

# The results go on.

SMILES,AC50 [1],AC50 [2]
O=C(CCl)N(Cc1cccc([N+](=O)[O-])c1)c1cccc(Cl)c1,"1.78 µM [falling, partial curve, poor fit]","2.82 µM [falling, partial curve]"
COc1ccc2c(CC(=O)Nc3cccc(S(=O)(=O)N4CCOCC4)c3)coc2c1,,"12.6 µM [rising, single point]"
O=C(Oc1ccc(/C=N/Nc2nc(N3CCCCC3)nc(N3CCCCC3)n2)cc1)c1ccco1,"0.158 µM [falling, full curve]","1 µM [falling, full curve]"
Cc1ccc(C)c(NS(=O)(=O)c2ccc3c(c2)n(C)c(=O)n3C)c1,"14.1 µM [rising, single point]",
COc1ccc(C2N(Cc3ccccc3)CCN2Cc2ccccc2)cc1[N+](=O)[O-],"5.01 µM [falling, full curve, poor fit]","5.01 µM [falling, full curve, poor fit]"
COc1cccc(-c2cc(C(=O)N3CCN(C(c4ccccc4)c4ccccc4)CC3)no2)c1,,"7.94 µM [rising, partial curve]"
CCn1c(SCC(=O)N2CCC(C)CC2)nnc1-c1ccccc1O,"0.316 µM [rising, partial curve, poor fit]",
O=S(=O)(Nc1cccc(-c2ccc(N3CCCCCC3)nn2)c1)c1ccccc1,"28.2 µM [falling, partial curve, poor fit]","25.1 µM [falling, partial curve, poor fit]"
CCCCOc1ccc(C(=O)Nc2ccncc2)cc1,"2.82 µM [rising, full curve]","2.51 µM [rising, full curve]"
Cc1ccc(S(=O)(=O)NCCc2sc3nc(-c4ccccc4)nn3c2C)cc1C,,"0.355 µM [rising, partial curve]"
O=C(CCS(=O)(=O)c1ccccc1)Nc1cccc(-c2nc3ccccc3s2)c1,"4.47 µM [falling, partial curve]","0.178 µM [falling, full curve, poor fit]"
CCOCCCNC(=O)Nc1cc(C(=O)NCc2ccc(C(C)C)cc2)ccc1N1CCCC1,"35.5 µM [falling, single point]",
CC(=O)c1ccc(C(=O)N(Cc2cccnc2)c2nc3c(Cl)cccc3s2)cc1,,"11.2 µM [rising, partial curve, poor fit]"
COc1cc(CN2CCCC(C(=O)c3ccccc3SC)C2)cc(OC)c1 (stereo not given),"10 µM [falling, partial curve, poor fit]","12.6 µM [falling, partial curve, poor fit]"
CC1CC(C)CN(c2oc(Cc3ccccc3)nc2C#N)C1 (stereo not given),"10 µM [rising, partial curve, poor fit]","2.24 µM [rising, full curve, poor fit]"
CCCCCCCCCCCCCCCC(=O)OC(CC(=O)O)C[N+](C)(C)C (stereo not given),"25.1 µM [falling, single point]","12.6 µM [falling, partial curve, poor fit]"
O=S(=O)(Nc1ccccn1)c1ccc(C2CCCCC2)cc1,,"15.8 µM [rising, single point]"
O=C(NCCc1c[nH]c2ccccc12)/C(=C\c1cccnc1)NC(=O)c1ccco1,,"11.2 µM [rising, partial curve, poor fit]"
O=c1c2[nH]c3ccc(Br)cc3c2ncn1CCCn1ccnc1,"35.5 µM [falling, single point]",
COc1ccc(C)cc1S(=O)(=O)N1CCC(C(=O)NCCc2ccccc2)CC1,"20 µM [rising, single point]",
COc1ccc(-n2c(SCC(=O)Nc3nnc(C)s3)nc3c([nH]c4ccccc43)c2=O)cc1,"0.447 µM [falling, full curve, poor fit]","0.794 µM [falling, full curve, poor fit]"
COc1cccc(CNc2ncc(-c3ccc(Br)cc3)n2C)c1,"1.41 µM [falling, full curve]",
Cn1c(Cn2cnc3ccccc32)nc2ccccc21,"20 µM [rising, partial curve, poor fit]","14.1 µM [rising, partial curve]"
CCOC(=O)c1cc(-c2ccccc2)sc1NC(=O)C(C)Sc1nnc(N)s1 (stereo not given),,"35.5 µM [rising, single point]"
COc1cccc2sc(N3CCN(C(=O)CS(=O)(=O)c4ccc(Cl)cc4)CC3)nc12,"31.6 µM [falling, single point]",
COc1ccc(CN(C(=O)CSc2nnc(-c3ccccc3C)o2)c2ccc(F)cc2)cc1,,"22.4 µM [rising, single point]"
